Screen size: about 2,300 compounds; about 1,200 (52%) were called active. The set was probably picked from earlier hits. The inconclusive results got no clear call from the source; some entries with a clear call stand among them for comparison. Calls come from the whole dose curve; as a rule, active = well fitted inhibition curve with a large enough effect; inconclusive = small, poorly fitted or top-dose-only effect, or effect the other way; inactive = no such curve, though single readings can be large or run the other way. A potency beside an inconclusive call is a rough fit, not a confirmed value.
Experiment: Confirmation screen for delayed death inhibitors of the malarial parasite plastid, 48 hour incubation; note: nearly all actives have a fitted effect of over 65% in size
Conditions: P. falciparum-infected erythrocytes, luciferase growth; series mostly up to 28.7 µM
Procedure, shortened: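 Erythrocytes infected with luciferase-expressing P. falciparum (2% hematocrit, 0.1% parasitemia) incubated with compounds 48 hours at 37 C, 5% CO2, in RPMI/Albumax. Growth inhibition scored as reduced luminescence after detection reagent.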
Potency is the fitted concentration of half-maximal effect.

Row | Compound | Potency
1 | CC(=O)N1CCSc2ccc(S(=O)(=O)Nc3ccc(C)cc3)cc21 | active: 10 µM
2 | COc1cc(C(=O)NCc2ccncc2)cc(Br)c1OCc1ccccc1 | inconclusive: 12.6 µM [inhibitor, partial curve, poor fit]
3 | COc1cc(C(=O)NCc2nnc(SCC(=O)NC3CCCC3)o2)cc(OC)c1OC | inconclusive: 8.91 µM [inhibitor, partial curve, poor fit]
4 | Cc1nc(SC(C)C(=O)NCC2CCCO2)c2cc(-c3ccccc3)sc2n1 (configuration not stated) | inconclusive: 15.8 µM [inhibitor, partial curve, poor fit]
5 | COc1ccc(CC(=O)NCC2CCCN(Cc3ccc(F)c(OC)c3)C2)cc1 (configuration not stated) | inconclusive: 12.6 µM [inhibitor, partial curve]
6 | Cn1c(CCN2CCCC2)nc2cc(NS(=O)(=O)c3ccc(Cl)cc3)ccc21 | active: 11.2 µM
7 | CCCNC(=O)COC(=O)c1ccccc1C(=O)c1ccc(Cl)c([N+](=O)[O-])c1 | active: 12.6 µM
8 | CC1(C)Cc2c(ccc3ccccc23)C(c2cc3ccccc3oc2=O)=N1 | active: 12.6 µM
9 | Cc1ccc(N/N=C/c2ccncc2)cc1 | inactive
10 | CCOC(=O)C1=C(NC(=S)NC(=O)c2ccccc2)c2ccccc2CC1(C)CC (configuration not stated) | active: 11.2 µM
11 | O=C(OCC(=O)N1CCN(c2ccccc2)CC1)c1cc(Cl)ccc1[N+](=O)[O-] | inactive
12 | CCOC(=O)Cn1c(-c2nonc2NC(=O)c2ccccc2F)nc2ccccc21 | inconclusive: 2.24 µM [inhibitor, full curve, poor fit]
13 | Cc1ccc(NC2=CC(=O)CC(C)(C)C2)cc1Cl | inconclusive: 15.8 µM [inhibitor, single point]
14 | CCOc1cc(/C=C2\COc3ccccc3C2=O)ccc1OCC(=O)N(C)C | inconclusive: 14.1 µM [inhibitor, single point]
15 | COC(=O)C1=C(C)N(CC2CC2)C(=NCc2cc(OC)c(OC)c(OC)c2)N[C@H]1c1ccccc1 | active: 12.6 µM
16 | Brc1ccccc1OCCCOc1cccc2cccnc12 | inconclusive: 3.98 µM [activator, partial curve]
17 | CS(=O)(=O)c1ccc(C(=O)OCc2nnc(-c3ccccc3)o2)cc1[N+](=O)[O-] | inconclusive: 11.2 µM [inhibitor, single point]
18 | COc1cc(/C=C2/CCC/C(=C\c3cc(O)c(OC)c(Cl)c3)C2=O)cc(Cl)c1O | active: 11.2 µM
19 | COc1ccccc1OCC(=O)Nc1nc2c(s1)CCCC2 | inconclusive: 3.55 µM [activator, partial curve, poor fit]
20 | CCC1CN(C(=O)N2CCC(C(=O)Nc3ccccc3F)CC2)c2ccccc2O1 (configuration not stated) | inconclusive: 14.1 µM [inhibitor, partial curve]
21 | CC(=O)NC(C)c1nc2ccccc2n1CC(=O)N1C(C)CCCC1C (configuration not stated) | inactive

Another view of some results above.
COc1ccccc1OCC(=O)Nc1nc2c(s1)CCCC2
  Potency: inconclusive: 3.55 µM [activator, partial curve, poor fit]
CCC1CN(C(=O)N2CCC(C(=O)Nc3ccccc3F)CC2)c2ccccc2O1 (configuration not stated)
  Potency: inconclusive: 14.1 µM [inhibitor, partial curve]
CC(=O)NC(C)c1nc2ccccc2n1CC(=O)N1C(C)CCCC1C (configuration not stated)
  Potency: inactive

(next part)

Row | Compound | Potency
22 | CCOC(=O)C1=C(O)/C(=C\c2cc(C)n(-c3ccccc3F)c2C)N=C1C | inconclusive: 0.0355 µM [inhibitor, full curve, poor fit]
23 | CCOc1ccccc1C(=O)NCC(=O)NCCc1ccc(S(N)(=O)=O)cc1 | inactive
24 | O=C(NCCCN1CCCC1=O)C1CCC(CNS(=O)(=O)c2ccc(Cl)cc2)CC1 (configuration not stated) | inconclusive: 17.8 µM [inhibitor, single point]
25 | O=C(CC(SCCO)c1ccc2c(c1)OCO2)c1ccco1 (configuration not stated) | inconclusive: 3.98 µM [activator, partial curve]
26 | CCS(=O)(=O)c1ncc(Cl)c(C(=O)Nc2ccc(C)cc2)n1 | inconclusive: 17.8 µM [inhibitor, single point]
27 | Cc1cc(C(=O)N(C)CC2CCCN(CCc3ccc(F)cc3)C2)c(C)o1 (configuration not stated) | inconclusive: 14.1 µM [inhibitor, partial curve, poor fit]
28 | Cn1nccc1C(=O)N1CCCC(N2CCN(c3cccc(C(F)(F)F)c3)CC2)C1 (configuration not stated) | inconclusive: 12.6 µM [inhibitor, partial curve]
29 | COc1ccc2c(c1)c(CC(=O)OCC(=O)N(C)C)c(C)n2C(=O)c1ccc(Cl)cc1 | inconclusive: 15.8 µM [inhibitor, single point]
30 | O=C(c1cccs1)N1CCCN(c2ncnc3scc(-c4ccccc4)c23)CC1 | inconclusive: 14.1 µM [inhibitor, single point]
31 | COC(=O)C1=C(C)Nc2ncnn2C1c1ccccn1 (configuration not stated) | inactive
32 | Oc1ccc(-c2csc(NCc3ccco3)n2)cc1 | inconclusive: 1.12 µM [activator, full curve, poor fit]
33 | Cn1nnnc1Sc1ncnc2scc(-c3cccc(F)c3)c12 | active: 12.6 µM
34 | CCOC(=O)c1cc2c(nc1NC(=S)Nc1ccccc1)CC(C)(C)OC2 | inconclusive: 15.8 µM [inhibitor, partial curve, poor fit]
35 | CCc1ccc2c(CN(C)Cc3ccccc3OC)cc(=O)oc2c1 | inconclusive: 17.8 µM [inhibitor, single point]
36 | Nc1c(N(Cc2ccco2)C(=O)c2ccc(Br)cc2)c(=O)[nH]c(=O)n1Cc1ccccc1 | inconclusive: 15.8 µM [inhibitor, partial curve, poor fit]
37 | Cc1ccc(NC(=O)c2cccc(N3C(=O)C4C5C=CC(C5)C4C3=O)c2)cc1C (configuration not stated) | inconclusive: 14.1 µM [inhibitor, partial curve, poor fit]
38 | Cc1cnc(CNC(=O)c2ccc3oc(Cc4ccccc4)nc3c2)[nH]1 | active: 15.8 µM
39 | Cc1ccc2c(CN(C)Cc3cccc(F)c3)cc(=O)oc2c1C | inconclusive: 14.1 µM [inhibitor, partial curve, poor fit]
40 | Cc1c(C(=O)Nc2cccc([N+](=O)[O-])c2)csc1-c1ccccc1 | inconclusive: 7.94 µM [inhibitor, partial curve, poor fit]
41 | O=C(Nc1ccon1)c1nc[nH]c1C(=O)NCc1ccccc1 | inconclusive: 10 µM [inhibitor, partial curve, poor fit]
42 | CCCCCCn1c(SCCC)nc2c1c(=O)[nH]c(=O)n2C | inconclusive: 17.8 µM [inhibitor, single point]

From PubChem BioAssay AID504850 (National Center for Advancing Translational Sciences (NCATS), 2011)
